Data from doi:10.1101/235101.
No constants are given. Whether binding was seen depends on the method and setting. In cells and extracts the contact can be indirect. Some entries that bind do so weakly or less than the wild type.

The chains behind the UniProt entries cited, without tags or fusion partners. Where a name states a change or a piece, a line headed by the entry shows the natural chain unless it says otherwise.
UniProt Q80V94: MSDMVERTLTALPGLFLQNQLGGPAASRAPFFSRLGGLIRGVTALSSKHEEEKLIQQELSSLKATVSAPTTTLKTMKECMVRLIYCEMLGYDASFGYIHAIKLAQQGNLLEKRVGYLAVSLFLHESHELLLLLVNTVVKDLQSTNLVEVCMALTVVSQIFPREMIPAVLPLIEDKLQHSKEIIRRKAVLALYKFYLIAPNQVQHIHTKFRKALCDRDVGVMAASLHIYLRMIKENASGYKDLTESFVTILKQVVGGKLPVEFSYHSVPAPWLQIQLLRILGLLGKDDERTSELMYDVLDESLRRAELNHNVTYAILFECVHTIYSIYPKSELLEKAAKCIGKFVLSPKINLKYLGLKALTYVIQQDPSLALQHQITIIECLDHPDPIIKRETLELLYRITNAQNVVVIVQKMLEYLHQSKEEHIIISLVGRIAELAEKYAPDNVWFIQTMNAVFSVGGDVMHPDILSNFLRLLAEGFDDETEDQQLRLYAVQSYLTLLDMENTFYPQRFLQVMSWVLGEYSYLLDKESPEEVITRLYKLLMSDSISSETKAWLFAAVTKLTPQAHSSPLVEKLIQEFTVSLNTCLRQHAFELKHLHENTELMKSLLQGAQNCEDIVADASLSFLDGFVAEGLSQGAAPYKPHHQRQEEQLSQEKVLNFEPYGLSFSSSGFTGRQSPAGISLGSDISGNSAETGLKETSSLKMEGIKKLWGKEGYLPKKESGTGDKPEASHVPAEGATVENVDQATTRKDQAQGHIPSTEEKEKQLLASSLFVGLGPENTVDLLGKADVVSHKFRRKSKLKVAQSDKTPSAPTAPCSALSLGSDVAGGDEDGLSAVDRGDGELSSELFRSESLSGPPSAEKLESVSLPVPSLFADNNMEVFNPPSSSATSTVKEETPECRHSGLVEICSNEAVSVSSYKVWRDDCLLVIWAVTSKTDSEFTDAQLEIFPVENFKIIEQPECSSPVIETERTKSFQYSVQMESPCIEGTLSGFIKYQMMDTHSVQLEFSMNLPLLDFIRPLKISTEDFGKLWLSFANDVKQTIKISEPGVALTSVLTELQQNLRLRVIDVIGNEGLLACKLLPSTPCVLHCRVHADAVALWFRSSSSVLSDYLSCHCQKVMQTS

Biological target: T1, ATG9A (mouse (endogenous in mouse brain)) (UniProt Q68FE2)
T1 sequence: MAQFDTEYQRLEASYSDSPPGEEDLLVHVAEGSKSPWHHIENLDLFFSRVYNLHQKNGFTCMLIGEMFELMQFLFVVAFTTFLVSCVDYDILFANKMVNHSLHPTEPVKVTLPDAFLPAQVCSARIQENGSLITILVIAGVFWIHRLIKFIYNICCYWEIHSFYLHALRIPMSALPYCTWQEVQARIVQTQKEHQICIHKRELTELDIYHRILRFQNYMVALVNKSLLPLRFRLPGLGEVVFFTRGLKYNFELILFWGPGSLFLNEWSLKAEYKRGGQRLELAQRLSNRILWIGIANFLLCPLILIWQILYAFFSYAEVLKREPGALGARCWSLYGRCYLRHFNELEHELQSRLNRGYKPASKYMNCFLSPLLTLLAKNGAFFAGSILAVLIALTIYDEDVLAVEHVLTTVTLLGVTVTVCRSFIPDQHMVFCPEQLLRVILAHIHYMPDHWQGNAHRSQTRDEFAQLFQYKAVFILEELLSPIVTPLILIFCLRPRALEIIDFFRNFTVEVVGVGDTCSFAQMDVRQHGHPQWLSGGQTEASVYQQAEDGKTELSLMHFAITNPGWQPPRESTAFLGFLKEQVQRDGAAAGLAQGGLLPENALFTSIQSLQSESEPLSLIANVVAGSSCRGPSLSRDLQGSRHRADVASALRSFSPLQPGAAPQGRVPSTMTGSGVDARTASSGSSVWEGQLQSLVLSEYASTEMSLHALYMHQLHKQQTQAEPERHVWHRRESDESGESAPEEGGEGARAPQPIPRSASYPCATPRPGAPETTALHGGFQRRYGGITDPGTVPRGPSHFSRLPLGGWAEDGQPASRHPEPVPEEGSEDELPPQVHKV
Test: co-IP

Substance: AP-4 complex (from UniProt Q80V94 1-1122; Q9WV76 1-738; Q9JKC7 1-449; Q9WVL1 1-144)
- binding: binds
